Among the data in article PMC5587741 are binding values, retold here.

Sequences of proteins named here, by UniProt entry; tags and fusion partners are left off. Residues count along the entry.
UniProt Q86T13, residues 22-490: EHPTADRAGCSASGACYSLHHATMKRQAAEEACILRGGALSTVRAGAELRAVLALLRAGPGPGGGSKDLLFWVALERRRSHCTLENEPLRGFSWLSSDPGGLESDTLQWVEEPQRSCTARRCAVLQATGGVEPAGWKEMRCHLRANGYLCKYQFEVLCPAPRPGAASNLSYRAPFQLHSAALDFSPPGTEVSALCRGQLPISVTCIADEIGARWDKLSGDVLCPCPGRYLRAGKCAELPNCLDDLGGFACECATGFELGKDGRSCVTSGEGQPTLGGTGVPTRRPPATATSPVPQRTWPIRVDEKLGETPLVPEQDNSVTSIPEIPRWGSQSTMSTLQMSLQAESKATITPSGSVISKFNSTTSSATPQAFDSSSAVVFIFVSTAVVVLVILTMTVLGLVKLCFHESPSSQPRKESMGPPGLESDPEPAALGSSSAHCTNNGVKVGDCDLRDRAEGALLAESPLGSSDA
UniProt P0DMV8: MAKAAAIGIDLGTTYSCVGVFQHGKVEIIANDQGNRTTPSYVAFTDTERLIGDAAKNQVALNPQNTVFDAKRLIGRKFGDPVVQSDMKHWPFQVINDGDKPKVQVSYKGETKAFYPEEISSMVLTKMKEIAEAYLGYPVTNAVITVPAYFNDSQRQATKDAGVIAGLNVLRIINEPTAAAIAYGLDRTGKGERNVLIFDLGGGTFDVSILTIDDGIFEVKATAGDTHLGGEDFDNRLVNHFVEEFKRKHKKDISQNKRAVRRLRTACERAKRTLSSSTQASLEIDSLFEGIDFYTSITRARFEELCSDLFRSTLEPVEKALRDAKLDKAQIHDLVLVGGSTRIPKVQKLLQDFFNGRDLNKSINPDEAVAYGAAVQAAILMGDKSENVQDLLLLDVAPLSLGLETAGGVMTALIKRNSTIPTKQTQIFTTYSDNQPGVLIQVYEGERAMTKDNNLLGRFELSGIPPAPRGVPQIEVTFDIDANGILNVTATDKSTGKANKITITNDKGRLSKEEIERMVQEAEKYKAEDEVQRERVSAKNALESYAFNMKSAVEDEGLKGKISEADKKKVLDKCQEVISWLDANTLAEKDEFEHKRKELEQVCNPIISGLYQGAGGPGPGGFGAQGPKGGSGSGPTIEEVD

In the experiment the target is CLEC14a (C-type lectin domain family 14 member), endogenous in HUVECs (human (endogenous in HUVEC)) (UniProt Q86T13). Put plainly: co-IP; HUVEC extract (1% TX-100 in PBS, 1 mg protein) incubated overnight at 4 °C with sheep anti-CLEC14a or control antibody on protein G resin; blot with anti-HSP70-1A.

Results are given in words; binding and its absence hold for the method and conditions named. In cells and extracts the contact can be indirect. Some binding calls cover weakened binding; strength is not graded here.

With “heat shock protein 70-1A (HSP70-1A), endogenous in HUVECs (from UniProt P0DMV8 1-641)”, the binding entry was “binds”.
